From article PMC9870992
These are yes or no findings as the source states them, for the method shown. In cells and extracts the contact can be indirect. Some results given as binding are weak or reduced against the parent protein; the word gives no strength. Sequences can lack the tags named with a protein.

Sequences of proteins named here, by UniProt entry; tags and fusion partners are left off.
UniProt P78347: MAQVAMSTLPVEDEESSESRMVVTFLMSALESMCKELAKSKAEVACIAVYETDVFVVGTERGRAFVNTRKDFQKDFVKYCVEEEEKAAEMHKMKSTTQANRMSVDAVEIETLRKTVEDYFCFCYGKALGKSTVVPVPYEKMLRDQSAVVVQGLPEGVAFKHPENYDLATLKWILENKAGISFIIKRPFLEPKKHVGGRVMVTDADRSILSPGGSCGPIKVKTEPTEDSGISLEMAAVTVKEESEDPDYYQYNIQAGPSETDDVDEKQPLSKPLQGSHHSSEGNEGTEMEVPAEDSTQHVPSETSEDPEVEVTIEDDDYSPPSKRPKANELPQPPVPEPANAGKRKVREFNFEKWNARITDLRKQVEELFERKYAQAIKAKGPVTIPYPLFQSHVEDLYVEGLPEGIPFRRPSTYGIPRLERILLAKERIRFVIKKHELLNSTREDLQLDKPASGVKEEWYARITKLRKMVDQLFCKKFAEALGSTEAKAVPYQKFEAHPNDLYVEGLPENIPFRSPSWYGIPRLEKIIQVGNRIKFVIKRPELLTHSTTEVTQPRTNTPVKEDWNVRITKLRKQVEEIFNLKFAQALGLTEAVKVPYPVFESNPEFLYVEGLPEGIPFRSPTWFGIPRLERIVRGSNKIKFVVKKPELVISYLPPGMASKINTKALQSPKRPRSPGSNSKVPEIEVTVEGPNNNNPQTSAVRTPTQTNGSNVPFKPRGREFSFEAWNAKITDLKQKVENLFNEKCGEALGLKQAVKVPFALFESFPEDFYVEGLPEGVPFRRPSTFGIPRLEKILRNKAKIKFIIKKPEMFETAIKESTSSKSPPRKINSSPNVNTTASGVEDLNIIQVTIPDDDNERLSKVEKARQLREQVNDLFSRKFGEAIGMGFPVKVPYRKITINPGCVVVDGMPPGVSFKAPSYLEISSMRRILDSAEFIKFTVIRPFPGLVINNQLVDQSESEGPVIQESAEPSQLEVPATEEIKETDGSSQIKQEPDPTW

Target: T1, TRIM24-Flag (UniProt O15164)
T1 sequence: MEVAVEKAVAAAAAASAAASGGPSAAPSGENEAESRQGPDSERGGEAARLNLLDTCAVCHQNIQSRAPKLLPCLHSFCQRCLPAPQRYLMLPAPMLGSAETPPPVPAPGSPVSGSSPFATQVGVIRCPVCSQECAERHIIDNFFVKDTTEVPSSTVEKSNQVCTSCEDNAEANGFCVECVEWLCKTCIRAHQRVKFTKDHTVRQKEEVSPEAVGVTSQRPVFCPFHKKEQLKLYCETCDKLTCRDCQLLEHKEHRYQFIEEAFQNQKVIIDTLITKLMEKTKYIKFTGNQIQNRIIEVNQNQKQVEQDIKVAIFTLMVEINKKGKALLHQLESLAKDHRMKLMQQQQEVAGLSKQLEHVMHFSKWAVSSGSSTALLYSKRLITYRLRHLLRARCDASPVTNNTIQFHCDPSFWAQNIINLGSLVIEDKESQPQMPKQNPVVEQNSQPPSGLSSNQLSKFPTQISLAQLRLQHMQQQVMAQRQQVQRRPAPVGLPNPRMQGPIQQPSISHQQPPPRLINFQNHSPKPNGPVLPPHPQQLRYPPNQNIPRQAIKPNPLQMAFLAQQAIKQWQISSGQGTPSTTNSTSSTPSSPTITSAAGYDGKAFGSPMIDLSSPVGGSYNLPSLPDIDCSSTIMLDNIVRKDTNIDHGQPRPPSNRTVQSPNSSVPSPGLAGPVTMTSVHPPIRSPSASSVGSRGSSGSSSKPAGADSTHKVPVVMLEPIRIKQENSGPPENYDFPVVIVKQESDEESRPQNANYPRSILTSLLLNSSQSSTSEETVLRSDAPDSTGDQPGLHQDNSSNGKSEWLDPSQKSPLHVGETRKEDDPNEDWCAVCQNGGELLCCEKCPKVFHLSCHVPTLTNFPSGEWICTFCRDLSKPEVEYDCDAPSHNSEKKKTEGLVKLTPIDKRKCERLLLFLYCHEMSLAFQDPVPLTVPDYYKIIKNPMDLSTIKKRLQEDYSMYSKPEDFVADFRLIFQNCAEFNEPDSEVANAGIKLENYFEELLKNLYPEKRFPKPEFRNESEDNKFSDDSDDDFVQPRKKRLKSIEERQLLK
Assay: co-IP; Jurkat cells transduced with TRIM24-Flag lentivirus; 250 μg nuclear extract in Flag-IP Buffer (50 mM Tris-HCl pH 8.0, 90 mM NaCl, 1 mM EDTA, 1% Triton X-100); anti-Flag IP at 4 °C, protein A/G agarose; blot with anti-TFII-I antibody

binding: binds
Substance: endogenous TFII-I (from UniProt P78347 1-998)
